This is one part of the list.

Amino acid sequences for entries named in this document (tags omitted). A change or cut given only in a name is not applied to a line headed by its entry.
UniProt O95721: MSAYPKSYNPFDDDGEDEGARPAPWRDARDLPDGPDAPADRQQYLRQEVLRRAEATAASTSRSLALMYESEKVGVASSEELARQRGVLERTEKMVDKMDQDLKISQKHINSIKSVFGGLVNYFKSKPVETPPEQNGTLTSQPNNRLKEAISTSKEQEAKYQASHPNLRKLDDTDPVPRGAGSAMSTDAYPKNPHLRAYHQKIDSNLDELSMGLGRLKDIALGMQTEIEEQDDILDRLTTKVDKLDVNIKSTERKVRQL
UniProt O75643, whole entry, looked up: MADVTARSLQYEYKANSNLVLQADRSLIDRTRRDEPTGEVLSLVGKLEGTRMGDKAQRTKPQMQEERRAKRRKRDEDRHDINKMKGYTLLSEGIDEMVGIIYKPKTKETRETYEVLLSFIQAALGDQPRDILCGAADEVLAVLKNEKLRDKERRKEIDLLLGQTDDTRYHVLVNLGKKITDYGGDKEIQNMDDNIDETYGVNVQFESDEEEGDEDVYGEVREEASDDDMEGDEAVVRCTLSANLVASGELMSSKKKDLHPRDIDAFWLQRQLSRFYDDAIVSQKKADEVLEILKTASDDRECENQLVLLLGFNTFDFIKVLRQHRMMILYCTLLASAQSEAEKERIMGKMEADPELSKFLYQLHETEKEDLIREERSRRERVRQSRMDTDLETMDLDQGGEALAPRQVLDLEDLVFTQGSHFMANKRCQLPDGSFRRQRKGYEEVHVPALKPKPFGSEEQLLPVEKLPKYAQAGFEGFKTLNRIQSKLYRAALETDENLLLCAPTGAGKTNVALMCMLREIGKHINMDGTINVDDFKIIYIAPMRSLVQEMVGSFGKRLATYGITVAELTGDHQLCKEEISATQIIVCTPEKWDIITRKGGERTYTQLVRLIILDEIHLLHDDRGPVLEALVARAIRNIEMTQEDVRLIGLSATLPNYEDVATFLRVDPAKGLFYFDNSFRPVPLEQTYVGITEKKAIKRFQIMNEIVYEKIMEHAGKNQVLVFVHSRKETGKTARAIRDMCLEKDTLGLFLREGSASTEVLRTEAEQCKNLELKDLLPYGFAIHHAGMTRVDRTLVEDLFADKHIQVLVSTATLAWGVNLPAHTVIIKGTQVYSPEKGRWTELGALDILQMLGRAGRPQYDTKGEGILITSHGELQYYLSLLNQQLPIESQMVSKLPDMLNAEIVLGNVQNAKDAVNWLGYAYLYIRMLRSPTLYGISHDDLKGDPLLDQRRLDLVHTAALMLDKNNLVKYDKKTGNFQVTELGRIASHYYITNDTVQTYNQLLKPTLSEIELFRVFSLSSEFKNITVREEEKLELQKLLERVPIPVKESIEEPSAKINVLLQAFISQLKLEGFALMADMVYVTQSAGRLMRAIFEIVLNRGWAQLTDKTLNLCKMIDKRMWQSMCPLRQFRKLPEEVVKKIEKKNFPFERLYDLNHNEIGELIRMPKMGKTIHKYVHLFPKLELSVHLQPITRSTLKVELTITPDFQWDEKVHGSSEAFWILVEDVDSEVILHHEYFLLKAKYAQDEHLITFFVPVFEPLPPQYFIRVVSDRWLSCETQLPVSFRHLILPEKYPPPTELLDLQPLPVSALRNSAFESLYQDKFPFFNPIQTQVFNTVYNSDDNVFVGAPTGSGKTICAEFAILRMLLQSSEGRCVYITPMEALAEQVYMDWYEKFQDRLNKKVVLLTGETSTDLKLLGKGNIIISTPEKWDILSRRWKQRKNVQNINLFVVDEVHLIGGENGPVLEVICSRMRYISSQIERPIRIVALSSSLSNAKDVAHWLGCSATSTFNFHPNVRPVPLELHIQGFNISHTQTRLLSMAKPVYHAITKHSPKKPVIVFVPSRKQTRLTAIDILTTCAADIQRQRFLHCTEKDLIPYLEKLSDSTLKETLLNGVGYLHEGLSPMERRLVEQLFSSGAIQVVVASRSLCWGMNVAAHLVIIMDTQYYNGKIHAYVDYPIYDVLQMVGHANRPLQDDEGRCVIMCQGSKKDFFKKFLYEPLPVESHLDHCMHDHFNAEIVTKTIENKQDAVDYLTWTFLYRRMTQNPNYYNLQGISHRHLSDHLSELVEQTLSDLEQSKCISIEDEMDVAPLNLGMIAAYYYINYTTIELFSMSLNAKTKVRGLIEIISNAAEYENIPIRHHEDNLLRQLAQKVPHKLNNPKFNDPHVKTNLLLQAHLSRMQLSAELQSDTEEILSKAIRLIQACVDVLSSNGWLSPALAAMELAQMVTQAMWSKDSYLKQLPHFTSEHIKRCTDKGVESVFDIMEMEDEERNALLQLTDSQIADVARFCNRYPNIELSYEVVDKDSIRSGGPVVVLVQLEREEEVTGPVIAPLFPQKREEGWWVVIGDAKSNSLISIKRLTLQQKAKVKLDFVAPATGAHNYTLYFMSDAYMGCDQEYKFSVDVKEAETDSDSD
UniProt Q96R06: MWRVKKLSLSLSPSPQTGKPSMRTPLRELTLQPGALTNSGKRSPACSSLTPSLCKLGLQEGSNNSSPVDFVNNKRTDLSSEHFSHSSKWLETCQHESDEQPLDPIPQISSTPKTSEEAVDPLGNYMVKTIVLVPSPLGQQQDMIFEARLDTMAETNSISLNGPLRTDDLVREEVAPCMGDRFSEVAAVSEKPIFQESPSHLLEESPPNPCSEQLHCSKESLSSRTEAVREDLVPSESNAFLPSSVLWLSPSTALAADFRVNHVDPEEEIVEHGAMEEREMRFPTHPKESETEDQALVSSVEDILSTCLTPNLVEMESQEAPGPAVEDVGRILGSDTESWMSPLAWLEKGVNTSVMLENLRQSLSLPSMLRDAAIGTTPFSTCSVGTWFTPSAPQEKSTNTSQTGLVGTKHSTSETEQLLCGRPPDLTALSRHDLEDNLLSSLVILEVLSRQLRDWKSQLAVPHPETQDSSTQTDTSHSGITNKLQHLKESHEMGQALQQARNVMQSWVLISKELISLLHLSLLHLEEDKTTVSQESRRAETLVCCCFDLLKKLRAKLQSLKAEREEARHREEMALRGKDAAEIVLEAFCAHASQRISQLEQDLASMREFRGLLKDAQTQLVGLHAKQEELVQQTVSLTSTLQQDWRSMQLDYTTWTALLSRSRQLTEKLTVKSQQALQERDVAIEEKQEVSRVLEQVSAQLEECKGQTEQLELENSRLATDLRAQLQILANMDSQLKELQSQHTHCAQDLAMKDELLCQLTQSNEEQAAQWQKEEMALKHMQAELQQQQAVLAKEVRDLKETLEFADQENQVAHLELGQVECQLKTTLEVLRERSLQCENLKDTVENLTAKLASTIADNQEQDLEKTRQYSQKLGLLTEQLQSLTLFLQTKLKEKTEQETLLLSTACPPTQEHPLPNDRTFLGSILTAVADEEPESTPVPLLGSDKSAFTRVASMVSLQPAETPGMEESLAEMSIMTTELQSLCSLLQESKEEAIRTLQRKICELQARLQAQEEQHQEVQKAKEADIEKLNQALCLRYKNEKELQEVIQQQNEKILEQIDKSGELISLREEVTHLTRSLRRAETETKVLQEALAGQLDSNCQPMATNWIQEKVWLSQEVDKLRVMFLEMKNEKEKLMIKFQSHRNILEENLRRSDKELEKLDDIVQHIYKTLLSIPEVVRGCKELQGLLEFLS
UniProt O14745: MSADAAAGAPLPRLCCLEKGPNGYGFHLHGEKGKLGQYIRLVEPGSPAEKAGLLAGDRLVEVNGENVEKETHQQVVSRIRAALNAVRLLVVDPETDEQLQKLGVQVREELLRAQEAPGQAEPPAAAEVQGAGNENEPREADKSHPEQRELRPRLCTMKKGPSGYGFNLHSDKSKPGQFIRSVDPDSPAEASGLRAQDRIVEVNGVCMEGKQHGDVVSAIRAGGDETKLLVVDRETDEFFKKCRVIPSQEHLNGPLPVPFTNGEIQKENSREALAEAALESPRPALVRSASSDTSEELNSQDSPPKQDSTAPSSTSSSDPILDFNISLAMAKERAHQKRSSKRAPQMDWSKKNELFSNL
UniProt Q14683: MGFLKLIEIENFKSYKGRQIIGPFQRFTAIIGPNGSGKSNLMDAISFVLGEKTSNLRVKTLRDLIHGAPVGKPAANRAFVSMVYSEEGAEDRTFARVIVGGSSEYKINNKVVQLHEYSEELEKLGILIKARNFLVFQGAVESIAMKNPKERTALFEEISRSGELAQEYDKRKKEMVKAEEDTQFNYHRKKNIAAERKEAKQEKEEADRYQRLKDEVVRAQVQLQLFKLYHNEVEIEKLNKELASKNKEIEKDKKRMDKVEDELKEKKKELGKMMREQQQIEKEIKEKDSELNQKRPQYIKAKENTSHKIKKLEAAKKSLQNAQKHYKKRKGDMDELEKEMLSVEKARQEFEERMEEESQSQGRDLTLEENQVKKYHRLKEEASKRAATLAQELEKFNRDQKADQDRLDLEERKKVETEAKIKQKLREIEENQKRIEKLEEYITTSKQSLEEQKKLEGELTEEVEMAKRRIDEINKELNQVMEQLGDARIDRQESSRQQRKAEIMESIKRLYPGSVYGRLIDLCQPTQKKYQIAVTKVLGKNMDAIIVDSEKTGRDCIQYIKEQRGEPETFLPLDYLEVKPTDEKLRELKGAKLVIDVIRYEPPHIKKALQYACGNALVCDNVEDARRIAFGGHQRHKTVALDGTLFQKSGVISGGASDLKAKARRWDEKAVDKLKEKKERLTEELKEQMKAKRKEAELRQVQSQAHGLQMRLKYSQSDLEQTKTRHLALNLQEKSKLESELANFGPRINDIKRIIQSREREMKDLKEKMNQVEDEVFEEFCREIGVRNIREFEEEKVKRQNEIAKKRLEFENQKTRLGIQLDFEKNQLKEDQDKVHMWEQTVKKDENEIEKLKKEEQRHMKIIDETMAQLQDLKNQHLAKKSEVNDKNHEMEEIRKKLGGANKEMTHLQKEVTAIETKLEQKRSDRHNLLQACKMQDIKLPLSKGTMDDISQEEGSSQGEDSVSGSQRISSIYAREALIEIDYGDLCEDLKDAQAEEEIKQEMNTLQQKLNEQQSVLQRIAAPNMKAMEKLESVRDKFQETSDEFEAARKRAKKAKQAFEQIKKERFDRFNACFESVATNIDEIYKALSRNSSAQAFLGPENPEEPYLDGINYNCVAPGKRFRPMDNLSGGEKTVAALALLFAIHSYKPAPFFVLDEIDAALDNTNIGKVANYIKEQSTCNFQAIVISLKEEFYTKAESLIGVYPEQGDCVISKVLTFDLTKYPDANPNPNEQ
UniProt Q8TAQ2, whole entry, looked up: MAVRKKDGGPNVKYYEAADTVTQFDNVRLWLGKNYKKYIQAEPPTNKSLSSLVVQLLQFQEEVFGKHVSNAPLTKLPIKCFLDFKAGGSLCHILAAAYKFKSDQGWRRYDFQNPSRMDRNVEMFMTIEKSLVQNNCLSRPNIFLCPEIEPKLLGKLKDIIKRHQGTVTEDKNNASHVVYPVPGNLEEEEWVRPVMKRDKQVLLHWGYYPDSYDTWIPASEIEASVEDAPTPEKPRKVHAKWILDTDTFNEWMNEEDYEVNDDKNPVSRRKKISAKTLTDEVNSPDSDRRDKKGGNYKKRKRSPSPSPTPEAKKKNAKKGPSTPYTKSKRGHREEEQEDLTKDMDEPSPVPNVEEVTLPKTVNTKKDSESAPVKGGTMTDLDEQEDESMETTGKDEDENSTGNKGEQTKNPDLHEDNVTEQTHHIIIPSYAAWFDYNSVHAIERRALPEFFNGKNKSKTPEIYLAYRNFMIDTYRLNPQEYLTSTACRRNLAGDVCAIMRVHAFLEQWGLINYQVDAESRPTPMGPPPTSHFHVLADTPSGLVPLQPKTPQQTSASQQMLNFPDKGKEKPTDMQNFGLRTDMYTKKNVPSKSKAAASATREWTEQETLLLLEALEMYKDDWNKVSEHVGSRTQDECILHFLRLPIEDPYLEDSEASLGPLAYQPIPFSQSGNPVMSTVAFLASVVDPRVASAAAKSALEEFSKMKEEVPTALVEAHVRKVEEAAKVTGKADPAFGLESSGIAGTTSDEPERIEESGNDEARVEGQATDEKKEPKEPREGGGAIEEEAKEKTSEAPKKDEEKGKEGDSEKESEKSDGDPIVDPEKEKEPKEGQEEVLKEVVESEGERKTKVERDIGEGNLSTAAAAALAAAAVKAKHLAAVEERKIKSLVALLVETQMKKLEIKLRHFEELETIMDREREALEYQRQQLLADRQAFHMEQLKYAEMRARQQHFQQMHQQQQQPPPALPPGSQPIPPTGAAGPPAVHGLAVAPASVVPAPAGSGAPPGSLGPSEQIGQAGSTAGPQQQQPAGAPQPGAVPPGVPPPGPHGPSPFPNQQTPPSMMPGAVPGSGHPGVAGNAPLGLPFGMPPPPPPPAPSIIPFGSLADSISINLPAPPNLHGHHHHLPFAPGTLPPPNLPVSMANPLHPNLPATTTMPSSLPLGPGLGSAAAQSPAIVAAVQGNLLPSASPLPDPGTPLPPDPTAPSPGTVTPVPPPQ
UniProt O14508, whole entry, looked up: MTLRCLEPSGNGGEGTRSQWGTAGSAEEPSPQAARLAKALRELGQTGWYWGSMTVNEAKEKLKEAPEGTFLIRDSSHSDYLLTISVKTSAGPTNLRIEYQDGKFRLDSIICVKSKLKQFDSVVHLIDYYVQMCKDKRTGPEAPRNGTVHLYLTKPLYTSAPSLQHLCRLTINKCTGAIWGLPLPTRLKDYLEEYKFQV

Compound in the assay: CC[C@@H]1C(=O)N(C)c2cnc(Nc3ccc(C(=O)N[C@H]4CC[C@H](N5CCN(CC6CC6)CC5)CC4)cc3OC)nc2N1C(C)C [volasertib]
The experiment in a line: log2 fold change, soluble protein after heating vs DMSO (PISA); higher = thermal stabilisation; K562 cells, 10 uM, 30 min; active = over 0.2 and 3.5 SD of the protein, either way, in both replicates (recomputed). The method, boiled down: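 K562 cells at 2×10^6 cells/mL were treated with 10 μM compound for 30 min. Aliquots were heated for 3 min across 48°C-58°C, pooled, and extracted in PBS with 0.5% NP-40 at 4°C; soluble protein was the supernatant after 21,000xg for 90 min. Soluble protein was quantified by TMTpro 16plex LC-MS/MS with channel sums equalised, and reported as log2 fold change in thermal stability against DMSO controls, with values from duplicates.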
On to SLMAP (UniProt Q14BN4), for which the log2 fold change was inactive: -0.123.

Regarding SNAP23 (UniProt O00161), the log2 fold change is inactive: 0.095.

For the target SNAP29 (UniProt O95721), the log2 fold change was inactive: 0.052.

As to SMYD5 (UniProt Q6GMV2), the log2 fold change was inactive: -0.104.

As for SMAP1 isoform 2 (UniProt Q8IYB5), the log2 fold change was inactive: -0.082.

As for SNRNP200 (UniProt O75643), the log2 fold change is inactive: 0.066.

For SMPD2 (UniProt O60906), the log2 fold change is inactive: 0.261.

As for SPAG5 (UniProt Q96R06), the log2 fold change was inactive: -0.677.

With SLC9A3R2 (UniProt Q15599), the log2 fold change was inactive: -0.016.

Regarding SLC9A1 (UniProt P19634), the log2 fold change is inactive: -0.11.

In the case of SNCA (UniProt P37840), the log2 fold change is inactive: 0.043.

In the case of SMIM12 (UniProt Q96EX1), the log2 fold change is inactive: -0.062.

Regarding SNRPC (UniProt Q5TAL2), the log2 fold change was inactive: 0.

Consider SOD1 (UniProt P00441), for which the log2 fold change is inactive: 0.116.

As for SLC9A3R1 (UniProt O14745), the log2 fold change was inactive: 0.067.

For SMG7 isoform 4 (UniProt Q92540), the log2 fold change is inactive: -0.195.

With SMU1 (UniProt Q2TAY7), the log2 fold change was inactive: -0.136.

As for SMC1A (UniProt Q14683), the log2 fold change was inactive: -0.086.

With SNX17 (UniProt Q15036), the log2 fold change is inactive: -0.143.

Consider SMARCC2 (UniProt Q8TAQ2), for which the log2 fold change is inactive: -0.078.

SOCS2 (UniProt O14508): the log2 fold change is inactive: -0.049.

In the case of SORD (UniProt Q00796), the log2 fold change was inactive: 0.049.

For SMC1B isoform 3 (UniProt Q8NDV3), the log2 fold change is inactive: -0.144.
